Assay [1] concerns the target T1, Sideroflexin 1 (SFXN1) (human (endogenous in MCF7, COV434, HCT116, SH-SY5Y)) (UniProt Q9H9B4).
T1 sequence: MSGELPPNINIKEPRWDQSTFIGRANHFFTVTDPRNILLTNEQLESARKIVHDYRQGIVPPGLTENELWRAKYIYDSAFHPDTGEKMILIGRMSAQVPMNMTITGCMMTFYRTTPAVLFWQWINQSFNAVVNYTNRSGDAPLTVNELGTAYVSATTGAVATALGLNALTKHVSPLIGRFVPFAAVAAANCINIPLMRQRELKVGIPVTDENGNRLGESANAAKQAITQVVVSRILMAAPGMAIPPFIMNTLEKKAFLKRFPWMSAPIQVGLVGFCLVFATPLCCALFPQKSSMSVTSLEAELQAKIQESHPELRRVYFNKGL
Nature of the assay: co-IP; data not shown; told in the paragraph on immunoblots of SFXN1 immunoprecipitates.

Sequences of proteins named here, by UniProt entry; tags and fusion partners are left off. Residues count along the entry.
UniProt O95299, residues 36-355: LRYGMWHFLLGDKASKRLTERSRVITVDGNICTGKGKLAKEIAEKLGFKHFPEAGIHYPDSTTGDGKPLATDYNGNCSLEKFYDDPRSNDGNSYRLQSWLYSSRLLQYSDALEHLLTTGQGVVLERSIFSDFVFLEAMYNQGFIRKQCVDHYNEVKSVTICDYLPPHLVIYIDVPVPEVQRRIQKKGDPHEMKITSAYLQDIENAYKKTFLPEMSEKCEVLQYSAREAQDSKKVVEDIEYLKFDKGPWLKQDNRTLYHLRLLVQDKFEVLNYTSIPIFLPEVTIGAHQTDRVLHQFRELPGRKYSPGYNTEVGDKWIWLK

For assay [2], the target named is T1, Sideroflexin 1 (SFXN1) (human (endogenous in MCF7, COV434, HCT116, SH-SY5Y)). Nature of the assay: co-IP; endogenous SFXN1 precipitated with rabbit anti-SFXN1 from mitochondrial enriched fractions of MCF7, COV434, HCT116 and SH-SY5Y cells; immunoblot of the precipitate; rabbit IgG isotypic control. For orientation: Immunoblotting shows a protein as a band on a membrane.

Assay [3] shares this target. Nature of the assay: proximity ligation; Duolink In Situ Red kit on fixed, permeabilised MCF-7 cells; mouse anti-HSD10 and rabbit anti-SFXN1; control without primary antibodies.

The text below walks through data of paper PMC9495560.

Results are given in words; binding and its absence hold for the method and conditions named. Binding seen in cells or lysates may run through a third protein. Some binding calls cover weakened binding; strength is not graded here.

Consider NDUFA10 (from UniProt O95299 36-355), for which the binding result in assay [1] is “binds”. For the molecule “β subunit of the F1F0 ATPase (ATP5B) (from UniProt P06576 48-529)”, in assay [2], the binding entry was “no binding”.

B1: 17β-hydroxysteroid dehydrogenase (17β-HSD10) (protein, UniProt Q99714 1-261)
chain: MAAACRSVKGLVAVITGGASGLGLATAERLVGQGASAVLLDLPNSGGEAQAKKLGNNCVFAPADVTSEKDVQTALALAKGKFGRVDVAVNCAGIAVASKTYNLKKGQTHTLEDFQRVLDVNLMGTFNVIRLVAGEMGQNEPDQGGQRGVIINTASVAAFEGQVGQAAYSASKGGIVGMTLPIARDLAPIGIRVMTIAPGLFGTPLLTSLPEKVCNFLASQVPFPSRLGDPAEYAHLVQAIIENPFLNGEVIRLDGAIRMQP
Consider B1, for which the binding entry in assay [3] and in assay [2] was “binds” each time.
